Measurements reported in PubChem BioAssay AID1159578 (Peter MacCallum Cancer Centre, 2015)

- Screen: 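Genome-wide hunt for genes controlling movement of lymphatic endothelial cells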 (primary screen)
- System: human lymphatic endothelial cells
- Reagents: siRNA pool against human genes, 40 nM
- Timing: 48 h after transfection
- Detection: 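Cells stained with dye and imaged after a scratch; covered wound area and nuclei counted, duplicates averaged, migration set against mock wells and turned into a robust z-score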
- Reading the numbers: migration robust z-score: higher = faster migration into the scratch; nuclei per well: higher = more cells in the well
- Rule for the call: 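Migration changed when robust z exceeds 2 or falls below -2 and mean nuclei number is at least 3300; otherwise not called changed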
- Meaning of the calls: active = migration changed; inactive = no migration change, or too few cells
The deposit covers about 18,000 reagents; below is an unselected part. About 1,030 of them (5.7%) count as active. 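Inactive calls also include pools with fewer than 3300 nuclei, whose migration was not assessed.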 The raw values are shown without normalisation. Entries without a mark were called inactive. The numbers tell different reagents against one gene apart. Not all columns of the deposit are shown.

AKR1B15 → migration robust z-score: 0.48; nuclei per well, duplicate mean: 6224
ZNF664 → migration robust z-score: 0.84; nuclei per well, duplicate mean: 5062
SPINK14 → migration robust z-score: 0.16; nuclei per well, duplicate mean: 6549
CADM3 → migration robust z-score: 0.51; nuclei per well, duplicate mean: 5276
SYT9 → migration robust z-score: -0.9; nuclei per well, duplicate mean: 5006
H2AC18 → migration robust z-score: -0.04; nuclei per well, duplicate mean: 5149
KRT28 → migration robust z-score: -0.55; nuclei per well, duplicate mean: 6428
RPL37 → migration robust z-score: 0.74; nuclei per well, duplicate mean: 3928
HCP5 → migration robust z-score: -0.21; nuclei per well, duplicate mean: 5424
CAPS2 → migration robust z-score: 0.35; nuclei per well, duplicate mean: 5682

Laid out differently: 2 of the entries above
{"gene": "H2AC18", "reagent no.": 1, "migration robust z-score": -0.04, "nuclei per well, duplicate mean": 5149}
{"gene": "KRT28", "reagent no.": 1, "migration robust z-score": -0.55, "nuclei per well, duplicate mean": 6428}

Additional records follow.
NDUFS7 → migration robust z-score: 0.39; nuclei per well, duplicate mean: 7186
ZNF513 → migration robust z-score: -2.43; nuclei per well, duplicate mean: 2036
B4GALT1 → migration robust z-score: 0.05; nuclei per well, duplicate mean: 5856
ALG13 #1 → migration robust z-score: -0.35; nuclei per well, duplicate mean: 6812
ALG13 #2 → migration robust z-score: 0.65; nuclei per well, duplicate mean: 6154
RBP1 → migration robust z-score: 0.36; nuclei per well, duplicate mean: 7328
FUT3 → migration robust z-score: -0.86; nuclei per well, duplicate mean: 5550
SLC9A4 → migration robust z-score: 0.67; nuclei per well, duplicate mean: 7167
VPS72 → migration robust z-score: 0.8; nuclei per well, duplicate mean: 6950
ERCC8 → migration robust z-score: 1.27; nuclei per well, duplicate mean: 5418
NSUN4 → migration robust z-score: 0.88; nuclei per well, duplicate mean: 6000
